Test results reported in US5541208A, “Indole diterpene alkaloid compounds” (priority 1994, dated 1996).

By UniProt entry, the sequences of proteins in these tests, tags left out.
UniProt Q28204, whole entry: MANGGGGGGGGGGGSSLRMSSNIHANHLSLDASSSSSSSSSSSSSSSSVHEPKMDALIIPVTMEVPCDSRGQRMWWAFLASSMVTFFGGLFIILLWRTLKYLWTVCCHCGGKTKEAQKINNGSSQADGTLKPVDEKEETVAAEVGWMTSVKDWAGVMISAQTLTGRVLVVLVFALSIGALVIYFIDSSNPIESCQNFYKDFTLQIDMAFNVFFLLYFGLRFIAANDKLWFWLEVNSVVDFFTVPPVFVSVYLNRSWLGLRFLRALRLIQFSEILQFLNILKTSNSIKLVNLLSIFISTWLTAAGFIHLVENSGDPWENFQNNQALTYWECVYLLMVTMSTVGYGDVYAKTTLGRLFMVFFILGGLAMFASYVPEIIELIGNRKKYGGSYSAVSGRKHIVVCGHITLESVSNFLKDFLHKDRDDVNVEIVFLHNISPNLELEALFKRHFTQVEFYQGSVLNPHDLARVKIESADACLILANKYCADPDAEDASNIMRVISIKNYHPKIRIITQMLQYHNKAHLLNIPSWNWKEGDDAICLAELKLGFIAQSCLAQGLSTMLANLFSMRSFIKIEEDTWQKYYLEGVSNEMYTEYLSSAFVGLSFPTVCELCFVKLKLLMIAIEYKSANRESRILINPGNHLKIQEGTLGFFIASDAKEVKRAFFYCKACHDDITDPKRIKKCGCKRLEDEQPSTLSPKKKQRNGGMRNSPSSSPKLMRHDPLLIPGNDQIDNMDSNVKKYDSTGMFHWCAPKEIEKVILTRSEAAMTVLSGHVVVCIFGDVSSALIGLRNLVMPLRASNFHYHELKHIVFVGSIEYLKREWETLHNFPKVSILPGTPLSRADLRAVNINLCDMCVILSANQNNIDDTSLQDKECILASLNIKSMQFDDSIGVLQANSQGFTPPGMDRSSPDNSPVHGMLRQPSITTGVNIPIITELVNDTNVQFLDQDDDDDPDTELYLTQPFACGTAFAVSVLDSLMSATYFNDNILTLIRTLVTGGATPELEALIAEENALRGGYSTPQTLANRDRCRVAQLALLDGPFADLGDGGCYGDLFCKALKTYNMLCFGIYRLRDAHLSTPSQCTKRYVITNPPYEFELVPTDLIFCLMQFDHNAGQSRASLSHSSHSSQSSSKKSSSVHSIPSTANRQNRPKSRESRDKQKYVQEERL
UniProt Q28067, whole entry partner: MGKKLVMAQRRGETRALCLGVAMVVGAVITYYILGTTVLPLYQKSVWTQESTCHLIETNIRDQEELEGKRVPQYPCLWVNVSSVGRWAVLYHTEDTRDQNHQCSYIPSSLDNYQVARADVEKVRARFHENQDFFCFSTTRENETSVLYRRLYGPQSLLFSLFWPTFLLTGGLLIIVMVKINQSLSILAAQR

How the values were obtained:
[1] = biological target: maxi-K channels from bovine aortic smooth muscle (Bos taurus, UniProt Q28204); assay: Patch clamp recording of maxi-K channel currents in excised inside-out membrane patches; type: biochemical
Excerpt: Patch clamp recordings of currents flowing through large-conductance calcium-activated potassium (maxi-K) channels were made from membrane patches excised from cultured bovine aortic smooth muscle cells using conventional techniques (Hamill et al., 1981, Pflugers Archiv. 391, 85-100) at room temperature. Glass capillary tubing (Gamer #7052) was pulled in two stages to yield micropipettes with tip diameters of approximately 1-2 microns. Pipettes were typically filled with solutions containing (mM): 150 KCl, 10 Hepes (4-(2-hydroxyethyl)-1-piperazine ethanesulfonic acid), 1 Mg, 0.01 Ca, and adjusted to pH 7.20 with 3.7 mM KOH. After forming a high resistance (>10^9 ohms) seal between the sarcolemmal membrane and the pipette, the pipette was withdrawn from the cell, forming an excised inside-out membrane patch. The patch was excised into a bath solution containing (mM): 150 KCl, 10 Hepes, 5 EGTA (ethylene glycol bis(13-aminoethyl ether)-N,N,N',N'-tetraacetic acid), sufficient Ca to yield a free Ca concentration of 1-5 μM, and the pH was adjusted to 7.2 with 10.5 KOH. For example, 4.568 mM Ca was added to give a free concentration of 2 μM at 22 ° C. An AXOPATCH 1C amplifier (Axon Instruments, Foster City, Calif.) with a CV-4 headstage was used to control the voltage and to measure the currents flowing across the membrane patch. The input to the headstage was connected to the pipette solution with a Ag/AgCl wire, and the amplifier ground was connected to the bath solution with a Ag/AgCl wire covered with a tube filled with agar dissolved in 0.2M KCl. Maxi-K channels were identified by their large single channel conductance (~250 pS) and sensitivity of channel open probability to membrane potential and intracellular calcium concentration.
Data were stored on a RACAL STORE 4DS FM tape recorder (Racal Recorders, Vienna, Va.) or on digital video tape using a video casette recorder after digitizing the signal with VR-10 (Instrutech Corp., Belmont N.Y.) PCM video encoder. The signal was also recorded on chart paper with a GOULD 2400S chart recorder (Gould Inc., Cleveland Ohio). For quantitative analysis, the data was played into a DEC11-73 (Digital Equipment Corp., Maynard, Mass.) after digitization with a DT2782-8D1A analogue to digital converter (Data Translation Inc., Marlboro, Mass.), or played into a Mac IIx or Quadra 700 computer (Apple Computers) after digitization with an ITC-16 interface (Instrutech Corp., Belmont, N.Y.).

[2] = biological target: bovine aortic sarcolemma membrane vesicles ([^125 I]ChTX receptor) (Bos taurus, UniProt Q28204); assay: [^125 I]ChTX binding assay with aortic sarcolemma membrane vesicles; settings: 10 μM
Protocol: The interaction of [^125 I]ChTX with bovine aortic s sarcolemma membrane vesicles was determined under conditions as described (Vazquez et al., 1989, J. Biol. Chem. 264, 20902-20909). Briefly, sarcolemma membrane vesicles were incubated in 12×75 polystyrene tubes with ca. 25 pM [^125 I]ChTX (2200 Ci/mmol), in the absence or presence of test compound, in a media consisting of 20 mM NaCl, 20 mM Tris-HCl pH 7.4, 0.1% bovine serum albumin, 0.1% digitonin. Nonspecific binding was determined in the presence of 10 nM ChTX. Incubations were carried out at room temperature until ligand binding equilibrium is achieved at ca. 90 min. At the end of the incubation period, samples were diluted with 4 mL ice-cold 100 mM NaCl, 20 mM Hepes-Tris pH 7.4 and filtered through GF/C glass fiber filters that have been presoaked in 0.5% polyethylenimine. Filters were rinsed twice with 4 mL ice-cold quench solution. Radioactivity associated with filters was determined in a gamma counter. Specific binding data in the presence of each compound (difference between total binding and nonspecific binding) was assessed relative to an untreated control.

## CC(C)=CCOC(C)(C)[C@H]1O[C@H]2CC[C@]3(C)[C@@]4(C)c5[nH]c6ccc(CC=C(C)C)cc6c5C[C@@H]4CC[C@@]3(O)C23OC3[C@@H]1O (stereo partly drawn)
[1]; 10 nM
  block of maxi-K channels / channel activity: blocked a small fraction of channel activity
[1]; 100 nM
  block of channel activity: blocked approximately one half of the channel activity
[1]; 1 μM
  block of channel activity: blocked nearly all of the channel activity
[1]; compared with Compound C
  block of maxi-K channels relative to Compound C: weaker blockers of maxi-K channels than Compound C
[1]; read-out: 50% CHANNEL BLOCK, table of Example 4
  IC50: 0.1 µM
[2]
  inhibition of [^125 I]ChTX binding: 2%

Structures were worked out from names or drawings and are uncertain.
